Reference: PubChem BioAssay AID188 (DTP/NCI, 2004)
Shown are survivors of the treated group in tumour-free mice. Survivors were counted at the toxicity check, usually on the fifth day, unless a day is given; later deaths do not show. Schedule codes are those of the source, taken here to give the interval after Q, in days (D) or hours (H), and the number of doses after X. Some entries were tested several times; the results are listed from low to high.

Tested on: CD2F1 mice, nontumored, toxicity/survival
Experiment: NCI In Vivo Anticancer Drug Screen. Data for tumor model Nontumored Animals (Toxicity Test) in CD2F1 (CDF1) mice
[1] = dose: 1.0 mg/kg/injection, schedule: Q01DX001 (ip), vehicle: DMSO
[2] = dose: 10.0 mg/kg/injection, schedule: Q01DX001 (ip), vehicle: DMSO
[3] = dose: 100.0 mg/kg/injection, schedule: Q01DX001 (ip), vehicle: DMSO

`c1ccc([C@H]2CN3CCSC3=N2)cc1` was tested, and the survivor count (dose: 8.0 mg/kg/injection, schedule: Q01DX001 (ip), vehicle: saline) was 3 of 3, the survivor count (dose: 11.5 mg/kg/injection, schedule: Q01DX005 (ip), vehicle: saline) was 4 of 4 and the survivor count (dose: 14.0 mg/kg/injection, schedule: Q01DX001 (ip), vehicle: saline) was 3 of 3. For the same compound, the survivor count (dose: 19.0 mg/kg/injection, schedule: Q01DX005 (ip), vehicle: saline) was 4 of 4, the survivor count (dose: 23.0 mg/kg/injection, schedule: Q01DX001 (ip), vehicle: saline) was 3 of 3 and the survivor count (dose: 32.0 mg/kg/injection, schedule: Q01DX005 (ip), vehicle: saline) was 0 of 4. The survivor count (dose: 38.0 mg/kg/injection, schedule: Q01DX001 (ip), vehicle: saline) was 3 of 3, the survivor count (dose: 50.0 mg/kg/injection, schedule: Q01DX001 (ip), vehicle: saline) was 0 of 3 and the survivor count (dose: 100.0 mg/kg/injection, schedule: Q01DX001 (ip), vehicle: saline) was 0 of 3. The survivor count (dose: 200.0 mg/kg/injection, schedule: Q01DX001 (ip), vehicle: saline) was 0 of 3, the survivor count (dose: 300.0 mg/kg/injection, schedule: Q01DX001 (ip), vehicle: saline) was 0 of 3 and the survivor count (dose: 500.0 mg/kg/injection, schedule: Q01DX001 (ip), vehicle: saline) was 0 of 3. For the same compound, the survivor count (dose: 1000.0 mg/kg/injection, schedule: Q01DX001 (ip), vehicle: saline) was 0 of 3.
`Cc1nc(N)nc(N)c1-c1ccc(Cl)c(Cl)c1` was tested, and the survivor count (dose: 2.0 mg/kg/injection, schedule: Q01DX009 (sc), vehicle: other) was 10 of 10, the survivor count (dose: 4.0 mg/kg/injection, schedule: Q01DX009 (sc), vehicle: other) was 10 of 10 and the survivor count (dose: 6.0 mg/kg/injection, schedule: Q01DX009 (sc), vehicle: other) was 10 of 10. For the same compound, the survivor count (dose: 8.0 mg/kg/injection, schedule: Q01DX009 (sc), vehicle: other) was 9 of 9 and the survivor count (dose: 10.0 mg/kg/injection, schedule: Q01DX009 (sc), vehicle: other) was 10 of 10.
For `OCCNc1ncc2ccccc2c1-c1ccc(N(CCO)CCO)cc1`, the survivor count [1] was 2 of 2, the survivor count [2] was 2 of 2 and the survivor count [3] was 2 of 2.
For `COc1ccc2c3c1OC1C(Oc4nnnn4-c4ccccc4)C=CC4C(C2)N(C)CCC341` (stereo not drawn), the survivor count (dose: 1.0 mg/kg/injection, schedule: Q01DX001 (ip), vehicle: other) was 2 of 2, the survivor count (dose: 10.0 mg/kg/injection, schedule: Q01DX001 (ip), vehicle: other) was 2 of 2 and the survivor count (dose: 100.0 mg/kg/injection, schedule: Q01DX001 (ip), vehicle: other) was 2 of 2.
With `CO[C@H](C(=O)[C@@H](O)[C@@H](C)O)[C@@H]1Cc2cc3cc(OC4CC(OC5CC(O)C(O)C(C)O5)C(O)C(C)O4)c(C)c(O)c3c(O)c2C(=O)[C@H]1OC1CC(OC2CC(OC3CC(C)(O)C(O)C(C)O3)C(O)C(C)O2)C(O)C(C)O1` (stereo partly drawn) the survivor count (dose: 0.01 mg/kg/injection, schedule: Q01DX009 (ip), vehicle: saline) was 8 of 8, the survivor count (dose: 0.02 mg/kg/injection, schedule: Q01DX009 (sc), vehicle: saline) was 8 of 8 and the survivor count (dose: 0.03 mg/kg/injection, schedule: Q01DX001 (ip), vehicle: saline) was 8 of 8. The survivor count (dose: 0.03 mg/kg/injection, schedule: Q01DX001 (sc), vehicle: saline) was 8 of 8, the survivor count (dose: 0.03 mg/kg/injection, schedule: Q01DX005 (iv), vehicle: saline) was 8 of 8 and the survivor count (dose: 0.03 mg/kg/injection, schedule: Q01DX009 (ip), vehicle: saline) was 8 of 8. The survivor count (dose: 0.03 mg/kg/injection, schedule: Q01DX009 (sc), vehicle: saline) was 8 of 8, the survivor count (dose: 0.06 mg/kg/injection, schedule: Q01DX001 (ip), vehicle: saline) was 8 of 8 and the survivor count (dose: 0.06 mg/kg/injection, schedule: Q01DX001 (sc), vehicle: saline) was 8 of 8. The survivor count (dose: 0.06 mg/kg/injection, schedule: Q01DX005 (iv), vehicle: saline) was 8 of 8, the survivor count (dose: 0.06 mg/kg/injection, schedule: Q01DX009 (ip), vehicle: saline) was 8 of 8 and the survivor count (dose: 0.06 mg/kg/injection, schedule: Q01DX009 (sc), vehicle: saline) was 8 of 8. For the same compound, the survivor count (dose: 0.13 mg/kg/injection, schedule: Q01DX001 (ip), vehicle: saline) was 8 of 8, the survivor count (dose: 0.13 mg/kg/injection, schedule: Q01DX001 (sc), vehicle: saline) was 8 of 8 and the survivor count (dose: 0.13 mg/kg/injection, schedule: Q01DX005 (iv), vehicle: saline) was 8 of 8. The survivor count (dose: 0.13 mg/kg/injection, schedule: Q01DX009 (ip), vehicle: saline) was 8 of 8, the survivor count (dose: 0.13 mg/kg/injection, schedule: Q01DX009 (sc), vehicle: saline) was 8 of 8 and the survivor count (dose: 0.25 mg/kg/injection, schedule: Q01DX001 (ip), vehicle: saline) was 8 of 8. For the same compound, the survivor count (dose: 0.25 mg/kg/injection, schedule: Q01DX001 (sc), vehicle: saline) was 8 of 8, the survivor count (dose: 0.25 mg/kg/injection, schedule: Q01DX005 (iv), vehicle: saline) was 8 of 8 and the survivor count (dose: 0.25 mg/kg/injection, schedule: Q01DX009 (ip), vehicle: saline) was 8 of 8. For the same compound, the survivor count (dose: 0.25 mg/kg/injection, schedule: Q01DX009 (oral), vehicle: saline) was 8 of 8, the survivor count (dose: 0.25 mg/kg/injection, schedule: Q01DX009 (sc), vehicle: saline) was 7 of 8 and 8 of 8 and the survivor count (dose: 0.5 mg/kg/injection, schedule: Q01DX001 (ip), vehicle: saline) was 8 of 8. For the same compound, the survivor count (dose: 0.5 mg/kg/injection, schedule: Q01DX001 (oral), vehicle: saline) was 8 of 8, the survivor count (dose: 0.5 mg/kg/injection, schedule: Q01DX001 (sc), vehicle: saline) was 2 of 8 and 8 of 8 and the survivor count (dose: 0.5 mg/kg/injection, schedule: Q01DX005 (iv), vehicle: saline) was 7 of 8. The survivor count (dose: 0.5 mg/kg/injection, schedule: Q01DX009 (oral), vehicle: saline) was 8 of 8, the survivor count (dose: 0.5 mg/kg/injection, schedule: Q01DX009 (sc), vehicle: saline) was 1 of 8 and 8 of 8 and the survivor count (dose: 1.0 mg/kg/injection, schedule: Q01DX001 (oral), vehicle: saline) was 8 of 8. For the same compound, the survivor count (dose: 1.0 mg/kg/injection, schedule: Q01DX001 (sc), vehicle: saline) was 0 of 8 and 8 of 8, the survivor count (dose: 1.0 mg/kg/injection, schedule: Q01DX009 (oral), vehicle: saline) was 8 of 8 and the survivor count (dose: 1.0 mg/kg/injection, schedule: Q01DX009 (sc), vehicle: saline) was 0 of 6. The survivor count (dose: 2.0 mg/kg/injection, schedule: Q01DX001 (oral), vehicle: saline) was 8 of 8, the survivor count (dose: 2.0 mg/kg/injection, schedule: Q01DX001 (sc), vehicle: saline) was 0 of 8 and the survivor count (dose: 2.0 mg/kg/injection, schedule: Q01DX009 (oral), vehicle: saline) was 6 of 8. The survivor count (dose: 2.0 mg/kg/injection, schedule: Q01DX009 (sc), vehicle: saline) was 1 of 8, the survivor count (dose: 4.0 mg/kg/injection, schedule: Q01DX001 (oral), vehicle: saline) was 8 of 8 and the survivor count (dose: 4.0 mg/kg/injection, schedule: Q01DX001 (sc), vehicle: saline) was 0 of 8.
With `Oc1cc2c3c(c1)-c1c(ccc(O)c1O)CC3NCC2` (stereo not drawn) the survivor count [1] was 2 of 2, the survivor count [2] was 2 of 2 and the survivor count [3] was 1 of 2.
For `COc1cc2c(cc1OC)C(OC)N(C)c1c-2ccc2cc3c(cc12)OCO3` (stereo not drawn), the survivor count (dose: 2.0 mg/kg/injection, schedule: Q01DX009 (ip), vehicle: water) was 8 of 8, the survivor count (dose: 2.0 mg/kg/injection, schedule: Q03HX008 (ip), vehicle: water) was 8 of 8 and the survivor count (dose: 4.0 mg/kg/injection, schedule: Q01DX009 (ip), vehicle: water) was 7 of 8. For the same compound, the survivor count (dose: 4.0 mg/kg/injection, schedule: Q01DX009 (oral), vehicle: water) was 8 of 8, the survivor count (dose: 4.0 mg/kg/injection, schedule: Q01DX009 (sc), vehicle: water) was 8 of 8 and the survivor count (dose: 4.0 mg/kg/injection, schedule: Q03HX008 (ip), vehicle: water) was 8 of 8. For the same compound, the survivor count (dose: 8.0 mg/kg/injection, schedule: Q01DX009 (ip), vehicle: water) was 8 of 8, the survivor count (dose: 8.0 mg/kg/injection, schedule: Q01DX009 (oral), vehicle: water) was 8 of 8 and the survivor count (dose: 8.0 mg/kg/injection, schedule: Q01DX009 (sc), vehicle: water) was 8 of 8. The survivor count (dose: 8.0 mg/kg/injection, schedule: Q03HX008 (ip), vehicle: water) was 8 of 8, the survivor count (dose: 8.0 mg/kg/injection, schedule: Q04DX003 (ip), vehicle: water) was 8 of 8 and the survivor count (dose: 16.0 mg/kg/injection, schedule: Q01DX001 (ip), vehicle: water) was 8 of 8. The survivor count (dose: 16.0 mg/kg/injection, schedule: Q01DX009 (ip), vehicle: water) was 8 of 8, the survivor count (dose: 16.0 mg/kg/injection, schedule: Q01DX009 (oral), vehicle: water) was 8 of 8 and the survivor count (dose: 16.0 mg/kg/injection, schedule: Q01DX009 (sc), vehicle: water) was 8 of 8. For the same compound, the survivor count (dose: 16.0 mg/kg/injection, schedule: Q03HX008 (ip), vehicle: water) was 2 of 8, the survivor count (dose: 16.0 mg/kg/injection, schedule: Q04DX003 (ip), vehicle: water) was 8 of 8 and the survivor count (dose: 16.0 mg/kg/injection, schedule: Q08DX002 (ip), vehicle: water) was 8 of 8. The survivor count (dose: 32.0 mg/kg/injection, schedule: Q01DX001 (ip), vehicle: water) was 8 of 8, the survivor count (dose: 32.0 mg/kg/injection, schedule: Q01DX009 (ip), vehicle: water) was 8 of 8 and the survivor count (dose: 32.0 mg/kg/injection, schedule: Q01DX009 (oral), vehicle: water) was 8 of 8. For the same compound, the survivor count (dose: 32.0 mg/kg/injection, schedule: Q01DX009 (sc), vehicle: water) was 8 of 8, the survivor count (dose: 32.0 mg/kg/injection, schedule: Q04DX003 (ip), vehicle: water) was 8 of 8 and the survivor count (dose: 32.0 mg/kg/injection, schedule: Q08DX002 (ip), vehicle: water) was 8 of 8. For the same compound, the survivor count (dose: 64.0 mg/kg/injection, schedule: Q01DX001 (ip), vehicle: water) was 8 of 8, the survivor count (dose: 64.0 mg/kg/injection, schedule: Q01DX009 (ip), vehicle: water) was 0 of 8 and the survivor count (dose: 64.0 mg/kg/injection, schedule: Q01DX009 (oral), vehicle: water) was 8 of 8. For the same compound, the survivor count (dose: 64.0 mg/kg/injection, schedule: Q01DX009 (sc), vehicle: water) was 8 of 8, the survivor count (dose: 64.0 mg/kg/injection, schedule: Q04DX003 (ip), vehicle: water) was 7 of 8 and the survivor count (dose: 64.0 mg/kg/injection, schedule: Q08DX002 (ip), vehicle: water) was 8 of 8. The survivor count (dose: 128.0 mg/kg/injection, schedule: Q01DX001 (ip), vehicle: water) was 4 of 8 and the survivor count (dose: 128.0 mg/kg/injection, schedule: Q08DX002 (ip), vehicle: water) was 4 of 8.
